PubChem BioAssay AID504786, Drosophila RNAi Screening Center, 2011
The screen tested about 21,000 reagents; this is a random part of those that have a named target and a result. 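Primary screen; positive scores mean lost reporter signal, so the sign may be inverted from the usual convention.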 Reagents against one gene are numbered here.

- Aim: 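Fly genes required for HIF-dependent transcription when hypoxia is mimicked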 (primary screen)
- System: Drosophila S2 cells with a stable HIF luciferase reporter
- Reagents: long dsRNA against Drosophila genes, about 0.2 µg dsRNA per well of a 384-well plate
- Time to read-out: three days of knock-down, then 20 h of DFO before reading
- Challenge: desferrioxamine (DFO) at 100 µM, an iron chelator that mimics hypoxia, for 20 h
- Measurement: 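Firefly luciferase driven by the mouse ldh-a hypoxia-response element, measured after 20 h of 100 µM DFO; z-scores per plate, higher means more signal lost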
- Scale: z-score: higher = stronger loss of HIF reporter signal

Depletion of TotA (Turandot A) resulted in: z-score, replicate 1 = -0.1; z-score, replicate 2 = -0.1. Knock-down of CG12236 #1 gave: z-score, replicate 1 = 0.8; z-score, replicate 2 = 1.1. CG12236 #2 gave z-score, replicate 1 = -0.3; z-score, replicate 2 = -0.4. With knock-down of mr (morula) the results were z-score, replicate 1 = -0.3; z-score, replicate 2 = -0.3. Against CG3216 the deposit lists z-score, replicate 1 = 0; z-score, replicate 2 = -0.1. Silencing of ND-B17 (NADH dehydrogenase (ubiquinone) B17 subunit) resulted in: z-score, replicate 1 = -0.3; z-score, replicate 2 = 0.2.

After knock-down of DptB (Diptericin B), the screen gave z-score, replicate 1 = 0; z-score, replicate 2 = 0.3. For Papss (PAPS synthetase), the values are z-score, replicate 1 = -0.2; z-score, replicate 2 = 0.1. Against CG31267, the values are z-score, replicate 1 = -0.1; z-score, replicate 2 = 0.1.

Copied from the list.
Entry of ND-B17 (NADH dehydrogenase (ubiquinone) B17 subunit) under “z-score, replicate 1”: -0.3
TotA (Turandot A), z-score, replicate 2 → -0.1

More reagents follow.
After knock-down of lectin-24A, the screen gave z-score, replicate 1 = -0.3; z-score, replicate 2 = 0.1. After knock-down of porin the results were z-score, replicate 1 = -0.4; z-score, replicate 2 = -0.7. Against Npc2d (Niemann-Pick type C-2d) the deposit lists z-score, replicate 1 = -0.2; z-score, replicate 2 = 0.1. For ZnT41F (Zinc transporter 41F), the entry reads z-score, replicate 1 = -0.2; z-score, replicate 2 = 0. Aduk (Another Drosophila Unc-51-like kinase) showed z-score, replicate 1 = -0.3; z-score, replicate 2 = 0.5. Depletion of CG8209 came out at: z-score, replicate 1 = -0.4; z-score, replicate 2 = -0.1.

Against CG15864 the deposit lists z-score, replicate 1 = 0; z-score, replicate 2 = -0.5.
